Test results: the supplement of paper PMC6078165
Values are relative to the signal before dosing, not to a vehicle control; the signal also falls without drug.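 Fibroblast labels name human fibroblasts: mostly primary ones from tissues such as uterus (C12385, HUF), lung (H6013), bone (Hs27A), adrenal (HADF) and skin (WS1), plus mammary HMF and breast cancer-associated Hs343T. The cancer cells are basal-like or mesenchymal-like triple-negative breast cancer lines. The paper calls a changed response a hit when it shifts by more than 3x the replicate standard deviation. The tissue of the other fibroblasts is not given here.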

System: MDAMB436
Test: relative JC-1 red fluorescence (viability) vs pre-drug, coculture with fibroblast (fraction); higher = more viable cancer cells
Method: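 JC-1 labelled TNBC cells cocultured 1:1 (1,500 cells each) with CellTrace Violet stained primary or stromal fibroblasts in 384-well plates in FluoroBrite medium, treated with one of 42 anticancer drugs at 0.1, 1, 10 or 100 uM. JC-1 red fluorescence (mitochondrial integrity in cancer cells only) was read by plate reader every 8 h for 72 h. Values are normalised to each well's pre-drug value. The stock of one drug was tenfold lower, so its dose labels may be too high.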

O=C(CCCCCCC(=O)Nc1ccccc1)NO [Vorinostat]
relative JC-1 red fluorescence
Conditions | 8 h | 16 h | 24 h | 32 h | 40 h | 48 h | 56 h | 64 h | 72 h
0.1 µM, coculture fibroblast: C12385 | 0.7867 | 0.672 | 0.625 | 0.537 | 0.489 | 0.453 | 0.438 | 0.422 | 0.424
0.1 µM, coculture fibroblast: H6013 | 0.7515 | 0.7171 | 0.7041 | 0.6915 | 0.6766 | 0.7037 | 0.6733 | 0.6604 | 0.6213
0.1 µM, coculture fibroblast: H6019 | 0.687 | 0.628 | 0.579 | 0.488 | 0.443 | 0.419 | 0.39 | 0.365 | 0.34
0.1 µM, coculture fibroblast: H6076 | 0.694 | 0.621 | 0.6049 | 0.576 | 0.5705 | 0.55 | 0.567 | 0.556 | 0.554
0.1 µM, coculture fibroblast: H6231 | 0.726 | 0.636 | 0.6419 | 0.5548 | 0.542 | 0.511 | 0.493 | 0.476 | 0.456
0.1 µM, coculture fibroblast: HADF | 0.777 | 0.685 | 0.638 | 0.602 | 0.571 | 0.575 | 0.519 | 0.502 | 0.4721
0.1 µM, coculture fibroblast: HCFa | 0.739 | 0.718 | 0.689 | 0.659 | 0.629 | 0.646 | 0.588 | 0.569 | 0.512
0.1 µM, coculture fibroblast: HCPF | 0.753 | 0.6995 | 0.697 | 0.64 | 0.637 | 0.606 | 0.599 | 0.576 | 0.569
0.1 µM, coculture fibroblast: HHSteC | 0.779 | 0.775 | 0.761 | 0.735 | 0.73 | 0.743 | 0.682 | 0.655 | 0.599
0.1 µM, coculture fibroblast: HMF | 0.706 | 0.649 | 0.603 | 0.558 | 0.543 | 0.505 | 0.507 | 0.482 | 0.474
0.1 µM, coculture fibroblast: HPFa | 0.873 | 0.79 | 0.754 | 0.715 | 0.708 | 0.713 | 0.631 | 0.595 | 0.516
0.1 µM, coculture fibroblast: HUF | 0.823 | 0.707 | 0.671 | 0.598 | 0.535 | 0.504 | 0.482 | 0.46 | 0.453
0.1 µM, coculture fibroblast: Hs5 | 0.7558 | 0.691 | 0.665 | 0.601 | 0.581 | 0.551 | 0.564 | 0.541 | 0.537
0.1 µM, coculture fibroblast: Hs27A | 0.8318 | 0.76 | 0.75923 | 0.746 | 0.716 | 0.7726 | 0.6744 | 0.6624 | 0.58589
0.1 µM, coculture fibroblast: Hs343T | 0.746 | 0.67 | 0.629 | 0.571 | 0.543 | 0.505 | 0.483 | 0.462 | 0.453
0.1 µM, coculture fibroblast: WS1 | 0.74 | 0.651 | 0.599 | 0.51 | 0.466 | 0.43 | 0.401 | 0.377 | 0.365
1 µM, coculture fibroblast: C12385 | 0.8076 | 0.722 | – | 0.547 | 0.495 | 0.473 | 0.451 | 0.437 | 0.432
1 µM, coculture fibroblast: H6013 | 0.7997 | 0.7122 | 0.6722 | 0.6578 | 0.639 | 0.655 | 0.635 | 0.627 | 0.599
1 µM, coculture fibroblast: H6019 | 0.746 | 0.647 | 0.605 | 0.535 | 0.494 | 0.479 | 0.45 | 0.427 | 0.408
1 µM, coculture fibroblast: H6076 | 0.792 | 0.672 | 0.646 | 0.623 | 0.611 | 0.602 | 0.616 | 0.62 | 0.615
1 µM, coculture fibroblast: H6231 | 0.822 | 0.734 | 0.666 | 0.615 | 0.574 | 0.5468 | 0.536 | 0.513 | 0.489
1 µM, coculture fibroblast: HADF | 0.822 | 0.741 | 0.69 | 0.674 | 0.639 | 0.643 | 0.598 | 0.588 | 0.553
1 µM, coculture fibroblast: HCFa | 0.809 | 0.76 | 0.703 | 0.697 | 0.669 | 0.671 | 0.616 | 0.602 | 0.55
1 µM, coculture fibroblast: HCPF | 0.793 | 0.706 | 0.668 | 0.623 | 0.598 | 0.568 | 0.542 | 0.524 | 0.501
1 µM, coculture fibroblast: HHSteC | 0.872 | 0.847 | 0.77 | 0.739 | 0.718 | 0.723 | 0.663 | 0.645 | 0.597
1 µM, coculture fibroblast: HMF | 0.802 | 0.695 | 0.614 | 0.569 | 0.541 | 0.511 | 0.498 | 0.482 | 0.469
1 µM, coculture fibroblast: HPFa | 0.83 | 0.756 | 0.707 | 0.676 | 0.661 | 0.674 | 0.61 | 0.596 | 0.544
1 µM, coculture fibroblast: HUF | 0.8448 | 0.734 | 0.679 | 0.607 | 0.549 | 0.519 | 0.488 | 0.472 | 0.464
1 µM, coculture fibroblast: Hs5 | 0.864 | 0.778 | 0.7088 | 0.6518 | 0.62 | 0.5756 | 0.574 | 0.54 | 0.531
1 µM, coculture fibroblast: Hs27A | 0.789 | 0.711 | 0.677 | 0.677 | 0.6555 | 0.693 | 0.633 | 0.62 | 0.562
1 µM, coculture fibroblast: Hs343T | 0.785 | 0.66 | 0.5719 | 0.5278 | 0.5025 | 0.475 | 0.4575 | 0.4448 | 0.43752
1 µM, coculture fibroblast: WS1 | 0.8014 | 0.7016 | 0.64 | 0.554 | 0.511 | 0.493 | 0.473 | 0.452 | 0.449
10 µM, coculture fibroblast: C12385 | 0.814 | 0.676 | 0.647 | 0.5435 | 0.4942 | 0.4632 | 0.4444 | 0.421 | 0.416
10 µM, coculture fibroblast: H6013 | 0.8207 | 0.737 | 0.726 | 0.721 | 0.713 | 0.745 | 0.734 | 0.741 | 0.723
10 µM, coculture fibroblast: H6019 | 0.7092 | 0.648 | 0.626 | 0.564 | 0.553 | 0.57 | 0.579 | 0.597 | 0.608
10 µM, coculture fibroblast: H6076 | 0.663 | 0.556 | 0.536 | 0.498 | 0.494 | 0.491 | 0.517 | 0.526 | 0.534
10 µM, coculture fibroblast: H6231 | 0.772 | 0.68 | 0.581 | 0.52 | 0.494 | 0.459 | 0.441 | 0.428 | 0.409
10 µM, coculture fibroblast: HADF | 0.822 | 0.717 | 0.703 | 0.675 | 0.672 | 0.693 | 0.636 | 0.637 | 0.593
10 µM, coculture fibroblast: HCFa | 0.788 | 0.763 | 0.741 | 0.699 | 0.691 | 0.7147 | 0.679 | 0.689 | 0.656
10 µM, coculture fibroblast: HCPF | 0.789 | 0.635 | 0.634 | 0.575 | 0.547 | 0.516 | 0.495 | 0.475 | 0.469
10 µM, coculture fibroblast: HHSteC | 0.807 | 0.739 | 0.716 | 0.687 | 0.679 | 0.704 | 0.652 | 0.645 | 0.614
10 µM, coculture fibroblast: HMF | 0.7177 | 0.5933 | 0.571 | 0.525 | 0.524 | 0.49 | 0.512 | 0.495 | 0.513
10 µM, coculture fibroblast: HPFa | 0.927 | 0.847 | 0.816 | 0.7822 | 0.7706 | 0.7961 | 0.749 | – | 0.72
10 µM, coculture fibroblast: HUF | 0.844 | 0.715 | 0.685 | 0.614 | 0.575 | 0.56 | 0.546 | 0.547 | 0.549
10 µM, coculture fibroblast: Hs5 | 0.77 | 0.633 | 0.629 | 0.578 | 0.568 | 0.537 | 0.558 | 0.536 | 0.541
10 µM, coculture fibroblast: Hs27A | 0.799 | 0.7292 | 0.6872 | 0.6761 | 0.6563 | 0.724 | 0.6793 | 0.6913 | 0.642
10 µM, coculture fibroblast: Hs343T | 0.677 | 0.575 | 0.5382 | 0.4905 | 0.469 | 0.438 | 0.439 | 0.4371 | 0.449
10 µM, coculture fibroblast: WS1 | 0.7914 | 0.669 | 0.6354 | 0.535 | 0.485 | 0.459 | 0.441 | 0.419 | 0.414
100 µM, coculture fibroblast: C12385 | 0.822 | 0.7092 | 0.708 | 0.612 | 0.563 | 0.536 | 0.514 | 0.498 | 0.497
100 µM, coculture fibroblast: H6013 | 0.8462 | 0.717 | 0.688 | 0.672 | 0.643 | 0.672 | 0.654 | 0.656 | 0.634
100 µM, coculture fibroblast: H6019 | 0.768 | 0.667 | 0.677 | 0.638 | 0.636 | 0.653 | 0.666 | 0.691 | 0.696
100 µM, coculture fibroblast: H6076 | 0.77599 | 0.639 | 0.5774 | 0.527 | 0.501 | 0.493 | 0.514 | 0.514 | 0.529
100 µM, coculture fibroblast: H6231 | 0.748 | 0.662 | 0.6127 | 0.5702 | 0.53 | 0.508 | 0.496 | 0.494 | 0.489
100 µM, coculture fibroblast: HADF | 0.829 | 0.756 | 0.712 | 0.685 | 0.669 | 0.693 | 0.653 | 0.647 | 0.606
100 µM, coculture fibroblast: HCFa | 0.801 | 0.7 | 0.663 | 0.623 | 0.607 | 0.631 | 0.603 | 0.626 | 0.5925
100 µM, coculture fibroblast: HCPF | 0.758 | 0.66 | 0.555 | 0.5259 | 0.476 | 0.445 | 0.421 | 0.408 | 0.396
100 µM, coculture fibroblast: HHSteC | 0.831 | 0.753 | 0.73 | 0.697 | 0.681 | 0.702 | 0.647 | 0.641 | 0.611
100 µM, coculture fibroblast: HMF | 0.761 | 0.651 | 0.565 | 0.537 | 0.521 | 0.492 | 0.497 | 0.499 | 0.513
100 µM, coculture fibroblast: HPFa | 0.885 | 0.823 | 0.78 | 0.74 | 0.73 | 0.742 | 0.692 | 0.694 | 0.653
100 µM, coculture fibroblast: HUF | 0.857 | 0.736 | 0.701 | 0.622 | 0.578 | 0.564 | 0.552 | 0.547 | 0.551
100 µM, coculture fibroblast: Hs5 | 0.81 | 0.701 | 0.641 | 0.568 | 0.5328 | 0.485 | 0.487 | 0.467 | 0.456
100 µM, coculture fibroblast: Hs27A | 0.908 | 0.848 | 0.774 | 0.73 | 0.68 | 0.693 | 0.643 | 0.629 | 0.573
100 µM, coculture fibroblast: Hs343T | 0.81 | 0.699 | 0.592 | 0.545 | 0.502 | 0.466 | 0.447 | 0.433 | 0.44
100 µM, coculture fibroblast: WS1 | 0.82 | 0.696 | 0.6633 | 0.58024 | 0.539 | 0.516 | 0.5 | 0.474 | 0.469
